# PubChem BioAssay AID1347075 (National Center for Advancing Translational Sciences (NCATS), 2019)
# Screen size: about 400,000 compounds; about 5,500 (1.4%) were called active. The shares of active, inactive and inconclusive entries below differ from those in the screen. Calls follow the shape of the dose curve; as a rule, active = well fitted cell-killing curve with a large enough effect; inconclusive = small, poorly fitted or top-dose-only effect, or effect the other way; inactive = flat fitted curve, though single readings scatter. A potency beside an inconclusive call is a rough fit, not a confirmed value.
# Experiment: qHTS assay for MDR1-selective chemotherapeutics: Primary screen using the parental adenocarcinoma cell KB-3-1; also: nearly all actives have a fitted effect of over 60% in size
# Conditions: KB-3-1 viability, CellTiter-Glo ATP luminescence, 72 h; activity change, negative = cytotoxic: at 46.1 µM (top of the series)
# Summary of the method: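 Parental KB-3-1 viability, qHTS format: 72 h compound exposure, 37 °C; CellTiter-Glo; media-only wells and DMSO plates as controls; concentration-effect fits on corrected data.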
# % is scaled to controls: 0 for no effect and ±100 for the full control effect; potency is read from the fitted curve at half-maximal effect.
Structure (SMILES),Potency,"activity change, negative = cytotoxic"
Cc1ccc(NC(=O)CN(Cc2ccco2)Cc2ccccc2O)cc1C,"inconclusive: 7.31 µM [cytotoxic, single point]",–
O=C(NC1CCC1)C1CCC(=O)N(Cc2ccc(Cl)cc2)C1 (centres undefined),–,inactive: 1.28%
Cc1nc(N)nc(Nc2ccc(Cl)cc2)c1Br,"inconclusive: 29.1 µM [cytotoxic, single point]",–
CCc1cccc(C)c1NC(=O)Nc1ccc2c(c1)OCO2,–,inactive: -2.84%
O=C(Nc1ccccc1N1CCCCC1)c1ccc(F)c(S(=O)(=O)N2CCOCC2)c1,"inconclusive: 16.4 µM [cytotoxic, partial curve, poor fit]",–
CCCCNC(=O)CCC1N=C2c3ccccc3N=C(SCC(=O)NCCc3ccc(OC)c(OC)c3)N2C1=O (centres undefined),–,inactive: 19.6%
COC(=O)c1nn(C23CC4CC(CC(C4)C2)C3)c2c1C(=O)N(c1ccc(Br)cc1)C2=O,–,inactive: -0.728%
CC1(C)CC(=O)C(C2=NC3(CCCCCC3)Cc3ccccc32)=C(O)C1,–,inactive: -5.21%
COc1ccc2c(c1)C1C=CCC1C(c1cc3c(cc1Br)OCO3)N2 (centres undefined),"inconclusive: 20.6 µM [cytotoxic, single point]",–
CC(C)C1Nc2c(O)cc(Cl)c([N+](=O)[O-])c2C2C=CCC21 (centres undefined),"inconclusive: 32.6 µM [cytotoxic, single point]",–
COc1cccc(NC(=O)Nc2nnc([C@@H]3C[C@H](O)[C@@H](CO)O3)s2)c1,–,inactive: 0%
CN(C)c1nc(Nc2ccc(Cl)cc2)nc(OCC#N)n1,"inconclusive: 11.2 µM [cytotoxic, partial curve, poor fit]",–
N#CC1=C(N)OC2=C(CCc3ccccc32)C1c1ccccc1 (centres undefined),active: 0.58 µM,–
CN(C)Cc1c(C(C)(C)O)[nH]c2ccc(C(F)(F)F)cc12,–,inactive: -2.37%
O=c1c2cc3c(cc2[nH]c(=S)n1Cc1ccco1)OCO3,"inconclusive: 20.6 µM [cytotoxic, partial curve, poor fit]",–
O=C(C[n+]1cccc2ccccc21)c1ccc(F)cc1,–,inactive: 19.2%
COc1ccc(C2C=C(c3ccc(F)cc3)Nc3nc(-c4ccc(Cl)cc4)nn32)cc1 (centres undefined),"inconclusive: 20.6 µM [cytotoxic, single point]",–
CSCCC(NS(=O)(=O)Cc1ccccc1)C(=O)NNc1ccccc1 (centres undefined),–,inactive: 17%
Nc1[nH]c(=O)[nH]c(=O)c1N=Nc1cccc(Cl)c1,"inconclusive: 23.1 µM [cytotoxic, single point]",–
CCCCNC(=O)C1(C)CCN1C(=O)c1cc2ccccc2s1 (centres undefined),–,inactive: -1.23%
Cc1c(NC(=S)NC(=O)C2CCCCC2)c(=O)n(-c2ccccc2)n1C,–,inactive: 7.68%
CNc1ccc(Cl)cc1S(=O)(=O)c1ccccc1[N+](=O)[O-],"inconclusive: 23.1 µM [cytotoxic, single point]",–

Structure (SMILES),Potency,"activity change, negative = cytotoxic"
CC(=O)O[C@H]1CC[C@H]2[C@@H]3CCc4cc(O)ccc4[C@H]3CC[C@]12C,"inconclusive: 25.9 µM [cytotoxic, single point]",–
CCc1nc2c(OCc3ccc(Cl)cc3)cccn2c1N(C)C(=O)c1ccco1,"inconclusive: 29.1 µM [cytotoxic, single point]",–
COc1cc2c(cc1OC)C(c1oc(-c3ccc(-c4cc(Cl)ccc4Cl)o3)cc1C)=NCC2,"inconclusive: 8.2 µM [cytotoxic, partial curve, poor fit]",–
O=C(Nc1nc(NC(=O)c2ccco2)n(-c2ccccc2)n1)c1ccccc1,active: 16.4 µM,–
Cn1cnnc1Sc1cc(N2CCN(S(=O)(=O)c3ccc4ccccc4c3)CC2)ccc1[N+](=O)[O-],"inconclusive: 0.58 µM [rising, single point]",–
O=C(Cn1ncc(Cl)c(Cl)c1=O)N1CCOCC1,"inconclusive: 23.1 µM [cytotoxic, single point]",–
C/C=C/C=C/C(=O)N1CC[C@]23c4ccccc4N[C@H]4N(C)c5cccc6c5[C@]42CCN([C@H]6C2OC2(C)C)[C@H]13 (some centres undefined),"inconclusive: 20.6 µM [cytotoxic, single point]",–
O=C(CN1CCN(C(=O)CCC(=O)N2CCC(c3ccccc3)=N2)CC1)Nc1ccc(F)cc1,"inconclusive: 23.1 µM [cytotoxic, partial curve, poor fit]",–
Fc1ccc(-c2nnc(CN3CCN(c4ncc(C(F)(F)F)cc4Cl)CC3)o2)cc1,"inconclusive: 23.1 µM [cytotoxic, single point]",–
CS(=O)(=O)N(CC(=O)Nc1ccccc1Sc1ccccc1)c1ccc(F)cc1,"inconclusive: 29.1 µM [cytotoxic, single point]",–
O=C(NCCCSc1ccccc1)c1cc(Cl)ccc1O,"inconclusive: 18.4 µM [cytotoxic, single point]",–
COc1ccc(Cl)cc1NC(=S)NCCc1c[nH]c2ccccc12,active: 20.6 µM,–
O=C(Nc1ccc(O)cc1)c1ccccc1OCc1ccccc1,"inconclusive: 23.1 µM [cytotoxic, single point]",–
O=S(=O)(c1ccc2c(c1)CCCN2)N1CCCC2CCCCC21 (centres undefined),"inconclusive: 20.6 µM [cytotoxic, partial curve, poor fit]",–
COc1ccccc1-n1c(CNC(=O)c2ccco2)nnc1SCC(=O)Nc1cc(C)ccc1C,"inconclusive: 29.1 µM [cytotoxic, single point]",–
O=C(CCc1ccccc1)N=C1SC2CS(=O)(=O)CC2N1Cc1ccc(F)cc1 (centres undefined),"inconclusive: 18.4 µM [cytotoxic, single point]",–
COc1cc(C(O)c2nc(-c3cccc(NC(C)=O)c3)cs2)ccc1F (centres undefined),–,inactive: -0.641%
COC(=O)COc1ccc(C2C(C(=O)OC)=C(C)NC3=C2C(=O)c2ccccc23)cc1OC (centres undefined),"inconclusive: 32.6 µM [cytotoxic, single point]",–
O=C(COC(=O)c1cc([N+](=O)[O-])ccc1N1CCOCC1)Nc1cccc(F)c1,–,inactive: 4.18%
Cc1cc(C)c2c(c1)NC(=O)C2(O)c1c[nH]c2ccccc12 (centres undefined),–,inactive: -4.44%
CCOc1ccc(-c2nnc(-c3cccnc3)o2)cc1OCC,"inconclusive: 5.17 µM [rising, partial curve]",–
COc1ccc(C(C)(O)c2nc(-c3ccncc3)cs2)cc1 (centres undefined),"inconclusive: 29.1 µM [cytotoxic, single point]",–

# Some values from above:
# activity change, negative = cytotoxic with CCCCNC(=O)CCC1N=C2c3ccccc3N=C(SCC(=O)NCCc3ccc(OC)c(OC)c3)N2C1=O (centres undefined) is entered as inactive: 19.6%
# activity change, negative = cytotoxic with Cc1c(NC(=S)NC(=O)C2CCCCC2)c(=O)n(-c2ccccc2)n1C is entered as inactive: 7.68%
